In this experiment the target is amyloid precursor protein (human (endogenous in Caco-2)) (UniProt P05067). Briefly: co-IP; Caco-2 cells, media alone or stimulated 10 min with 1 ug/mL IgG1, 22C11 (APP agonist antibody) or SMΦ (CD36 agonist antibody); lysed in 1% Triton X-100 buffer (20mM Tris pH 7.4, 150mM NaCl); anti-APP antibody overnight at 4°C, protein A/G agarose 2 h at 4°C, washed three times; western blot with anti-APP (Y188), CD36 or FATP4 antibodies. On the technique in general: A western blot detects proteins with antibodies after separation by electrophoresis.

By UniProt entry, the sequences of proteins in these tests, tags left out. Residues count along the entry.
UniProt P05067, residues 18-770: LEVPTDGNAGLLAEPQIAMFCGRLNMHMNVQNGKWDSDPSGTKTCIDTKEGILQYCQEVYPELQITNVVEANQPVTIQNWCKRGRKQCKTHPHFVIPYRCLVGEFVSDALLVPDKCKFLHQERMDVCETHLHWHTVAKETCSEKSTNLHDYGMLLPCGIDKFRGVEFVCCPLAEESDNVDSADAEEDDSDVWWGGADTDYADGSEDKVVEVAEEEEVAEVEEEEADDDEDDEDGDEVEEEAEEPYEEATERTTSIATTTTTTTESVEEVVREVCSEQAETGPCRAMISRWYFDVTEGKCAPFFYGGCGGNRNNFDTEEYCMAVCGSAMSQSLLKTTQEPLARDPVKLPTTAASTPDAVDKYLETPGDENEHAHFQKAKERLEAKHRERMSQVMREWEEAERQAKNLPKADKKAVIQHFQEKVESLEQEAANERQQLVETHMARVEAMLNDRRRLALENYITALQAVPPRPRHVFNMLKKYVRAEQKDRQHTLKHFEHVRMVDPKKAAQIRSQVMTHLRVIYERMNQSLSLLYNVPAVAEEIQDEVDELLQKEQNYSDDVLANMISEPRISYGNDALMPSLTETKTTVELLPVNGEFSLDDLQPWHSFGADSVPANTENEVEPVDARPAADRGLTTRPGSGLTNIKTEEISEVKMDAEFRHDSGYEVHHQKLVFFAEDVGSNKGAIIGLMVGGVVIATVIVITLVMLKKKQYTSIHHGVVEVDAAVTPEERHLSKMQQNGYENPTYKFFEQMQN
UniProt Q6P1M0: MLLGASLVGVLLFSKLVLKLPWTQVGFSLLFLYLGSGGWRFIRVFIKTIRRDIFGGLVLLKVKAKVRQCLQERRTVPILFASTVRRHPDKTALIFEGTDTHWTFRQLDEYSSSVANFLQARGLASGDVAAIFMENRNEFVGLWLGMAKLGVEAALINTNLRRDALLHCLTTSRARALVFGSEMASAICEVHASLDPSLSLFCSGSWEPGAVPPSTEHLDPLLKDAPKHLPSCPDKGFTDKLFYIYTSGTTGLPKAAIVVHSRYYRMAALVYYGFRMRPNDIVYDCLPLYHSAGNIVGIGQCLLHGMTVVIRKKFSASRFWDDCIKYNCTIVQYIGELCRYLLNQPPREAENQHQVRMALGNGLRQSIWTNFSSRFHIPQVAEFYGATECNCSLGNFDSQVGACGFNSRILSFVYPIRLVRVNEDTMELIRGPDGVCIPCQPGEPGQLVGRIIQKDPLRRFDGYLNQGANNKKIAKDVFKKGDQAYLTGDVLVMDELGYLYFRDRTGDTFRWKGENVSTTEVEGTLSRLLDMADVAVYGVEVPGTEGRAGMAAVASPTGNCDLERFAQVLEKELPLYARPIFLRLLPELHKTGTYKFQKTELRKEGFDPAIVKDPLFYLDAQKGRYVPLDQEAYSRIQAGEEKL

These are yes or no findings as the source states them, for the method shown. In cells and extracts the contact can be indirect.

The source of these data is paper PMC4351204, “Amyloid Precursor Protein Mediated Changes in Intestinal Epithelial Phenotype In Vitro” (PLoS ONE, 2015).

On to “fatty acid transport protein, FATP4 (from UniProt Q6P1M0 1-643)”, for which the binding entry is listed as “no binding”.
